# Reference: the supplement of paper PMC11006884
# Chains of the proteins cited; added tags and fusions are not shown. Lines headed by an entry give the natural chain unless they say otherwise; changes in a name come on top.
# UniProt Q9BU76: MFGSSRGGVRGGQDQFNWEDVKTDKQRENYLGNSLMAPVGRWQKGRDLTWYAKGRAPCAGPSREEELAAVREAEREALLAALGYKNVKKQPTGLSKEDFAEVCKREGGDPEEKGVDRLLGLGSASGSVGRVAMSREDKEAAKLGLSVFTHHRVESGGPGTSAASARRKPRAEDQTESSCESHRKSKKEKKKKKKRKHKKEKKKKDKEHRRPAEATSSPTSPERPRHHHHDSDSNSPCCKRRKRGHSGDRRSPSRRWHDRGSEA
# UniProt Q9C0B1, whole entry, looked up: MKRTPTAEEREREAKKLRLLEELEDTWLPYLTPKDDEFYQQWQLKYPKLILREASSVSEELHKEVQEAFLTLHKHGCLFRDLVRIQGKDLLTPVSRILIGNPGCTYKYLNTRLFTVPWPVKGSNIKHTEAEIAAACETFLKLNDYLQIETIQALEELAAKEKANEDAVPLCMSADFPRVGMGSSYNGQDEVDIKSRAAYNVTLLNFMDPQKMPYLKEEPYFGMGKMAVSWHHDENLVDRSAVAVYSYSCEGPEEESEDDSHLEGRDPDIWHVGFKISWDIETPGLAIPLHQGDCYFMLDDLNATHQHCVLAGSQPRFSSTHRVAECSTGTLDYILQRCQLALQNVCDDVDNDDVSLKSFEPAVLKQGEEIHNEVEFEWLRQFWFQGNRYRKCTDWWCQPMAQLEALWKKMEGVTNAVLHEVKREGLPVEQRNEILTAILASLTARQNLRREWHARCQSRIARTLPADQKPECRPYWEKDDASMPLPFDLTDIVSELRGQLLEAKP
# UniProt Q9C0C9: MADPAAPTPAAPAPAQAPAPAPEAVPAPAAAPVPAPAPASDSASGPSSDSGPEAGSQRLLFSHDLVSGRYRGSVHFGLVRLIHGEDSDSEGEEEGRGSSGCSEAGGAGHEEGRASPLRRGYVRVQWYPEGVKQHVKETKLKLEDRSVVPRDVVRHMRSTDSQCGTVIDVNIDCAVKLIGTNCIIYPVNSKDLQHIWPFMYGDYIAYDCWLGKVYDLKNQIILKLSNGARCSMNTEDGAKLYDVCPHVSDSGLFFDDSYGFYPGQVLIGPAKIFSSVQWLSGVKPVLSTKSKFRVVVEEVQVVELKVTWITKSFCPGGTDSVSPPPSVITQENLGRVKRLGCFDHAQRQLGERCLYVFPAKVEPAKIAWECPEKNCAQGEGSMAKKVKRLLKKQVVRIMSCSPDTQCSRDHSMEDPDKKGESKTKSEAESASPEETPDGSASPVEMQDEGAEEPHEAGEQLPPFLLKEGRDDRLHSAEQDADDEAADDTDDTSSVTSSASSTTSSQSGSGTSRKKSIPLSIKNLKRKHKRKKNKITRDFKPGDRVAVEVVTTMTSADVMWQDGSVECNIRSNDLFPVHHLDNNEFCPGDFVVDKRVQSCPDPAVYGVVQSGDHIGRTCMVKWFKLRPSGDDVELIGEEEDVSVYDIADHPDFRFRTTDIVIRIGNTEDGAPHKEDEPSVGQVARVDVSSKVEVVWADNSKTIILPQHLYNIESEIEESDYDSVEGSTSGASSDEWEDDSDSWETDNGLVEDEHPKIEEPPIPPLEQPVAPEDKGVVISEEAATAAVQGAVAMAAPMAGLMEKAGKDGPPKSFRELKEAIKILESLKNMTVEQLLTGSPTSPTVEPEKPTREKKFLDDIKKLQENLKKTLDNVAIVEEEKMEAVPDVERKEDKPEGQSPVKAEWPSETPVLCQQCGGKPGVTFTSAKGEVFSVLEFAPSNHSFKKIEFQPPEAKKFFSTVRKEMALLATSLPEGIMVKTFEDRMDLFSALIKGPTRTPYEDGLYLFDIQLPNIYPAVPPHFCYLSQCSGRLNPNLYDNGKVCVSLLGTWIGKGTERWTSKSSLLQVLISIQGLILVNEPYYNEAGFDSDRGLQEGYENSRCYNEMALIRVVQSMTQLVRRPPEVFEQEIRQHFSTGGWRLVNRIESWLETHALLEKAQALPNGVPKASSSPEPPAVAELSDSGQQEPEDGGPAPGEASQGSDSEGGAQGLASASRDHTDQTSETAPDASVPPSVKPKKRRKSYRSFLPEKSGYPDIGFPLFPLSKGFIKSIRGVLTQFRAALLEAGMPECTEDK
# UniProt Q9BZE9, whole entry, looked up: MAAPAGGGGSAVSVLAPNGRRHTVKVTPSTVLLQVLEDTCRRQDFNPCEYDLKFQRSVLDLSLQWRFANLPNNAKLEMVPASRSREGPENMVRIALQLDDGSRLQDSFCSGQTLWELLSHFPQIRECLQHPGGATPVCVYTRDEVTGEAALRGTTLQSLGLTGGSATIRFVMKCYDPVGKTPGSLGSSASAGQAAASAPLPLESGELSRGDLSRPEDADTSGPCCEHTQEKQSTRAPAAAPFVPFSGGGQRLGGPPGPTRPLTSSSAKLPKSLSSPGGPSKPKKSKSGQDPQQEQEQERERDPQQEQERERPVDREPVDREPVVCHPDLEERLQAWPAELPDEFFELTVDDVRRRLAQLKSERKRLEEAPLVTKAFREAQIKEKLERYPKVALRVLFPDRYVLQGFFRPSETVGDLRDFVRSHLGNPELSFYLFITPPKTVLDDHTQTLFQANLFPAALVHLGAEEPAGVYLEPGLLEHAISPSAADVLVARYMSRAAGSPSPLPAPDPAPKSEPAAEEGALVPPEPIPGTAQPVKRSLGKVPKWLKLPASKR
# UniProt Q9BV20: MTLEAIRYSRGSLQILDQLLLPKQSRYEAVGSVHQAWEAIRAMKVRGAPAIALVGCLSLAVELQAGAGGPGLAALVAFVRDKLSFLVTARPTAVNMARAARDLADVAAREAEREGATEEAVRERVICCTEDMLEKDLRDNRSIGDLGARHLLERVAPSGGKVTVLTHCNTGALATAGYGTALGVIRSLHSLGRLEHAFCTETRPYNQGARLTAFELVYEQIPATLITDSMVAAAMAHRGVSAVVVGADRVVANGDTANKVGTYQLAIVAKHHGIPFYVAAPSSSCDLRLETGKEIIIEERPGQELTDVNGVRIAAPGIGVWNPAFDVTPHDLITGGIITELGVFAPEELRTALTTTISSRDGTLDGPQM
# UniProt Q9BZD4: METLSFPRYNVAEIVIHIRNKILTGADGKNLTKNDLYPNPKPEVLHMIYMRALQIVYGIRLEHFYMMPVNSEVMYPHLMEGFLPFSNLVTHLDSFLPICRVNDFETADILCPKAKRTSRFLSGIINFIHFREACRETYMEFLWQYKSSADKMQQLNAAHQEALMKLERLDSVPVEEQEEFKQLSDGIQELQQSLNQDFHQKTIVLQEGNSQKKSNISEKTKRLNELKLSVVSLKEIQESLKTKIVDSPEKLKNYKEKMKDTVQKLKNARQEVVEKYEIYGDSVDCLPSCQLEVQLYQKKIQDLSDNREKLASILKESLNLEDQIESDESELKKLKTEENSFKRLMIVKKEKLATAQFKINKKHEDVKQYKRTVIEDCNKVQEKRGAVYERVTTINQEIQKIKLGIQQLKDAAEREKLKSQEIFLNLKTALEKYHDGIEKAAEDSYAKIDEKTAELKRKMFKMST
# UniProt Q9BZI7: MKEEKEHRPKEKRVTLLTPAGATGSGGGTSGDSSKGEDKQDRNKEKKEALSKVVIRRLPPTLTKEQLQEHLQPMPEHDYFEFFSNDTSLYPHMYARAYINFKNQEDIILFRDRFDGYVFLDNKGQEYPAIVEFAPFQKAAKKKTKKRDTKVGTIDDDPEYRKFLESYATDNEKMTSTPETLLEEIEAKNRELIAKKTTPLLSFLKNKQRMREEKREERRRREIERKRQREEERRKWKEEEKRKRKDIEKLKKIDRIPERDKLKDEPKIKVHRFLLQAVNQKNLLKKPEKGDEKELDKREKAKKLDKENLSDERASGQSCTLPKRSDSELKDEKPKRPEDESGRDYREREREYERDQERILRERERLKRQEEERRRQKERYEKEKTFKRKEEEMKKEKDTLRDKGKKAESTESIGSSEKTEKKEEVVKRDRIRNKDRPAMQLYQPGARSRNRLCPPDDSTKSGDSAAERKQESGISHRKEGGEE
# UniProt Q9BV68: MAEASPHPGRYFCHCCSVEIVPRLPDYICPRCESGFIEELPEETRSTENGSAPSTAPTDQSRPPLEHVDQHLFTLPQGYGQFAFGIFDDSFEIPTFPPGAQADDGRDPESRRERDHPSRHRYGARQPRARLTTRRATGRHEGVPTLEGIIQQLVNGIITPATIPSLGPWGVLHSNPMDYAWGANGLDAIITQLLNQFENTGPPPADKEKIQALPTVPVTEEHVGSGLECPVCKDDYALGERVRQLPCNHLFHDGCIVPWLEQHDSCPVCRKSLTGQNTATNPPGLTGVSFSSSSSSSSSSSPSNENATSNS
# UniProt Q9BVQ7: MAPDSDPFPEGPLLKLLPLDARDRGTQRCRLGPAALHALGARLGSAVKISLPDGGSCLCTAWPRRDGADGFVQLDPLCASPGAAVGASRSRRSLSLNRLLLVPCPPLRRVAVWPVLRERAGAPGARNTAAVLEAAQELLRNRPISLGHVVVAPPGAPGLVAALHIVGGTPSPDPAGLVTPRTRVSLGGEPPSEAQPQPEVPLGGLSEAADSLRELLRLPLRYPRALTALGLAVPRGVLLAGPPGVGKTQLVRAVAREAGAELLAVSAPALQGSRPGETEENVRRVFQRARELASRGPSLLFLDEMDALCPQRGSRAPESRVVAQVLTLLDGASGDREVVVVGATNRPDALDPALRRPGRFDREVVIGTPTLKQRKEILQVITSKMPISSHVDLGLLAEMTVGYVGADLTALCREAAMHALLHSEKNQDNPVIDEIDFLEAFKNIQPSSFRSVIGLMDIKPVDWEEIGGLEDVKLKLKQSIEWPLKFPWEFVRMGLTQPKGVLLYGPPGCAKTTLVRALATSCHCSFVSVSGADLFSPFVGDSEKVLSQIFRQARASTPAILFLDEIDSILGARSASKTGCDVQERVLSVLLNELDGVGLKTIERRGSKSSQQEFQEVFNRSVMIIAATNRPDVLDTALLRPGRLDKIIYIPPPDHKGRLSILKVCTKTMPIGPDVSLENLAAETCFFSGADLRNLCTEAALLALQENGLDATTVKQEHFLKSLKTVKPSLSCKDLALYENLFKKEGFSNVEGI
# UniProt Q9C0E8: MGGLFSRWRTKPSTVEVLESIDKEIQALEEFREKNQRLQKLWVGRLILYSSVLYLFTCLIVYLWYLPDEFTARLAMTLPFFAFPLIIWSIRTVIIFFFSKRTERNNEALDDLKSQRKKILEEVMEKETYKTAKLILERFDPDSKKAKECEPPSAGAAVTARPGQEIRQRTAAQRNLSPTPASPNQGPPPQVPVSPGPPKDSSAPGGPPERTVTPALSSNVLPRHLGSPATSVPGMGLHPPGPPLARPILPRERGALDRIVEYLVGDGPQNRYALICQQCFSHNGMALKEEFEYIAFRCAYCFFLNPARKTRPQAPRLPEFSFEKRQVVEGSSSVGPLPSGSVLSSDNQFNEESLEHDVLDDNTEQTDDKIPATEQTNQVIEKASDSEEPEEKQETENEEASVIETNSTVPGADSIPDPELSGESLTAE
# UniProt Q9BZL6: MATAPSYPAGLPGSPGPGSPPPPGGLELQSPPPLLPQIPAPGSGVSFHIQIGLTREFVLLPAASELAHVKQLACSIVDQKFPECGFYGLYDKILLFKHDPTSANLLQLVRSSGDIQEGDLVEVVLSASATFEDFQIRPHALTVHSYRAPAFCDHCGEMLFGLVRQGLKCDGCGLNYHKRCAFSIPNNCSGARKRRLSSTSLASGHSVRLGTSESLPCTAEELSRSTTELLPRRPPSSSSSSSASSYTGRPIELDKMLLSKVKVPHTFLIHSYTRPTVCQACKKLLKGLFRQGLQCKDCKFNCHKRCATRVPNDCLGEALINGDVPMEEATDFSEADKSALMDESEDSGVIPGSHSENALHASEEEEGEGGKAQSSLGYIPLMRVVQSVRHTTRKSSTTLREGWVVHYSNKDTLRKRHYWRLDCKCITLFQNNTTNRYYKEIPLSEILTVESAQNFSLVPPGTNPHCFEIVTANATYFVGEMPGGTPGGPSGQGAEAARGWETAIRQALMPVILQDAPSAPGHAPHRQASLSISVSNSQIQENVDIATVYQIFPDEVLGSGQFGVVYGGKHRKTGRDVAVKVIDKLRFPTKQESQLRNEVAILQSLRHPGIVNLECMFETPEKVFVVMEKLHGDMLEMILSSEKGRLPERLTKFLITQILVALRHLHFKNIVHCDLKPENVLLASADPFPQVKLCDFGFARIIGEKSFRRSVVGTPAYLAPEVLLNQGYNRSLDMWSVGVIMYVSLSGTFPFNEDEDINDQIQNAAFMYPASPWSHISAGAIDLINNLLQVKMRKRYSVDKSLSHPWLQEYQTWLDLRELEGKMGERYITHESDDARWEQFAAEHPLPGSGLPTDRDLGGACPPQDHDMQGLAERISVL
# UniProt Q9H1K1: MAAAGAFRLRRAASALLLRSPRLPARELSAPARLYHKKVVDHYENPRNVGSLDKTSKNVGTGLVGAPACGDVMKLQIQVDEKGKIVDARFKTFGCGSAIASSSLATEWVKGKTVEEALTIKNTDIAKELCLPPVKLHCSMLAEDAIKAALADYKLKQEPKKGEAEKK
# This is a selection; strong and weak results do not stand in their true shares.
# Compound: COC(=O)C#Cc1ccccc1 [methyl 3-phenylpropiolate]
# Test: log2 ratio of iodoacetamide-alkyne labeling of the cysteine site, DMSO over compound (competition); higher = stronger covalent engagement of the cysteine by the compound, active = 1 or more
# Conditions: 500 µM; treatment time 1 h; system: HEK293T cell lysate
# In short: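 Electrophile (500 µM) or vehicle was added to HEK293T lysate (2 mg/mL) for 1 h at ambient temperature before iodoacetamide alkyne labelling (1 h) and click coupling to sCIP-TMT reagents. After pooling, overnight trypsin digestion at 37 °C, streptavidin enrichment and acid elution, peptides were measured by Orbitrap Eclipse LC-MS/MS with FAIMS and quantified in FragPipe. Each cysteine's log2 competition ratio compares mean control-channel with mean compound-channel reporter intensity, control over compound. Data came from duplicate channels across three replicates, excluding cysteines quantified in only one replicate.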
row,Target,log2 ratio of iodoacetamide-alkyne labeling
1,UniProt Q9BVS4_C449,active: 1.18
2,UniProt Q9BU76_C179,inactive: 0.333
3,FTO C397 (UniProt Q9C0B1),inactive: 0.625
4,UBE2O C598 (UniProt Q9C0C9),inactive: 0.166
5,TARS2 C322 (UniProt Q9BW92),inactive: 0.0828
6,GPATCH1 C534 (UniProt Q9BRR8),inactive: 0.242
7,COPS4 C70 (UniProt Q9BT78),inactive: 0.101
8,TANC1 C1594 (UniProt Q9C0D5),active: 1.06
9,MED28 C80 (UniProt Q9H204),inactive: 0.36
10,ASPSCR1 C109 (UniProt Q9BZE9),inactive: 0.438
11,MRI1 C168 (UniProt Q9BV20),inactive: 0.0233
12,UBE2O C585 (UniProt Q9C0C9),inactive: 0.0628
13,UniProt Q9BV86_C195,inactive: 0.00457
14,FANCD2 C758 (UniProt Q9BXW9),inactive: 0.39
15,NUF2 C377 (UniProt Q9BZD4),inactive: 0.325
16,TBCD C1175 (UniProt Q9BTW9),inactive: 0.204
17,DIDO1 C856 (UniProt Q9BTC0),inactive: 0.609
18,DDX24 C49 (UniProt Q9GZR7),inactive: 0.148
19,TNKS1BP1 C1175 (UniProt Q9C0C2),inactive: 0.568
20,UniProt Q9BVL4_C629,inactive: 0.737
21,HNRNPUL1 C421 (UniProt Q9BUJ2),inactive: 0.182
22,DIDO1 C350 (UniProt Q9BTC0),inactive: 0.192
23,UniProt Q9BTE3_C3,inactive: 0.354
24,SLK C358 (UniProt Q9H2G2),inactive: 0.34
25,POLDIP3 C301 (UniProt Q9BY77),inactive: -0.32
26,ANP32E C123 (UniProt Q9BTT0),inactive: 0.02

# 4 successive entries out of the list so far, quoted:
row,Target,log2 ratio of iodoacetamide-alkyne labeling
2,UniProt Q9BU76_C179,inactive: 0.333
3,FTO C397 (UniProt Q9C0B1),inactive: 0.625
4,UBE2O C598 (UniProt Q9C0C9),inactive: 0.166
5,TARS2 C322 (UniProt Q9BW92),inactive: 0.0828

# Next part

row,Target,log2 ratio of iodoacetamide-alkyne labeling
1,MRPL1 C279 (UniProt Q9BYD6),inactive: 0.338
2,SLK C993 (UniProt Q9H2G2),inactive: -0.0376
3,UniProt Q9BTY7_C368,inactive: -0.125
4,KIFC1 C144 (UniProt Q9BW19),inactive: 0.388
5,UPF3B C453 (UniProt Q9BZI7),inactive: 0.248
6,RACGAP1 C419 (UniProt Q9H0H5),inactive: 0.303
7,DDA1 C25 (UniProt Q9BW61),inactive: 0.36
8,XPO4 C492 (UniProt Q9C0E2),inactive: 0.109
9,PELO C218 (UniProt Q9BRX2),inactive: 0.416
10,RNF126 C32 (UniProt Q9BV68),inactive: 0.0504
11,KIFC1 C557 (UniProt Q9BW19),inactive: 0.0199
12,CLPB C572 (UniProt Q9H078),inactive: 0.402
13,C20orf27 C156 (UniProt Q9GZN8),inactive: -0.296
14,COPS4 C378 (UniProt Q9BT78),inactive: 0.312
15,SPATA5L1 C309 (UniProt Q9BVQ7),active: 1.11
16,UniProt Q9C0E8_C149,inactive: 0.125
17,UniProt Q9BXJ9_C817,inactive: -0.134
18,ASPSCR1 C224 (UniProt Q9BZE9),active: 1.02
19,RBM42 C385 (UniProt Q9BTD8),inactive: 0.043
20,TNKS1BP1 C1324 (UniProt Q9C0C2),active: 1.18
21,PRKD2 C861 (UniProt Q9BZL6),inactive: 0.258
22,RAB3GAP2 C78 (UniProt Q9H2M9),inactive: 0.101
23,SETD2 C1471 (UniProt Q9BYW2),inactive: 0.322
24,ISCU C95 (UniProt Q9H1K1),inactive: 0.21
25,UTP14A C380 (UniProt Q9BVJ6),inactive: 0.429
26,FTO C171 (UniProt Q9C0B1),inactive: 0.392
